Values from PubChem BioAssay AID1259254 (NCATS, 2017).
The whole screen tested about 59,000 reagents; shown is a part drawn at random. About 1,550 of them (2.6%) count as active. 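G2 share is only a proxy for re-replication; each gene was hit by three separate siRNAs, and active genes were retested.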 The numbers tell different reagents against one gene apart. Not all columns of the deposit are shown. Not given: the amount of reagent.

Screen: 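Gene knock-downs that lead to re-replication, shown by excess G2 DNA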 (primary screen)
System: human HCT116 colorectal cancer cells
Knock-down reagent: single siRNA against human genes
Time to read-out: 3 days
Measured: 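Nuclei stained with Hoechst and imaged; cell-cycle phase assigned by DNA content; G2 share scaled per plate, non-targeting siRNA 0%, GMNN siRNA 100%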
Reading the numbers: G2 robust z-score: higher = more G2 cells, more excess DNA replication
Active means: 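Active siRNAs have a G2 robust z of 5 or more median absolute deviations over the median, which in these data means about 38% or higher of GMNN control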

What did the screen give for FBXW8 #1?
G2 robust z-score: 2.24; Outcome: inactive

With FBXW8 #2, what does the deposit list?
G2 robust z-score: 0.429; Outcome: inactive

What did the screen give for FBXW8 #3?
G2 robust z-score: 0.88; Outcome: inactive

What is on record for RNF222 #1?
G2 robust z-score: 0.582; Outcome: inactive

What is on record for RNF222 #2?
G2 robust z-score: -0.0073; Outcome: inactive

With RNF222 #3, what does the deposit list?
G2 robust z-score: 1.27; Outcome: inactive

For ZNF395 #1, what does the deposit list?
G2 robust z-score: -1.02; Outcome: inactive

How did the screen score ZNF395 #2?
G2 robust z-score: -0.653; Outcome: inactive

What is on record for ZNF395 #3?
G2 robust z-score: 0.522; Outcome: inactive

Which result is listed for BRI3BP #1?
G2 robust z-score: 2.04; Outcome: inactive

For BRI3BP #2, what does the deposit list?
G2 robust z-score: 0.767; Outcome: inactive

For BRI3BP #3, how do the results read?
G2 robust z-score: -0.328; Outcome: inactive

What did the screen give for RPL22P3 #1?
G2 robust z-score: -0.807; Outcome: inactive

How did the screen score RPL22P3 #2?
G2 robust z-score: -0.701; Outcome: inactive

With RPL22P3 #3, what was measured?
G2 robust z-score: -0.145; Outcome: inactive

With MYO1C #1, how do the results read?
G2 robust z-score: -0.659; Outcome: inactive

With MYO1C #2, what does the deposit list?
G2 robust z-score: 1.24; Outcome: inactive

What is on record for MYO1C #3?
G2 robust z-score: -0.204; Outcome: inactive

With FBF1 #1, what was measured?
G2 robust z-score: 0.2; Outcome: inactive

What is on record for FBF1 #2?
G2 robust z-score: 0.13; Outcome: inactive

What did the screen give for FBF1 #3?
G2 robust z-score: -0.289; Outcome: inactive

What is on record for ZDHHC3 #1?
G2 robust z-score: -0.669; Outcome: inactive

What did the screen give for ZDHHC3 #2?
G2 robust z-score: -0.572; Outcome: inactive

Which result is listed for ZDHHC3 #3?
G2 robust z-score: -1.04; Outcome: inactive

How did the screen score RELA #1?
G2 robust z-score: 3.83; Outcome: inactive

For RELA #2, what does the deposit list?
G2 robust z-score: 3.67; Outcome: inactive

How did the screen score RELA #3?
G2 robust z-score: 0.544; Outcome: inactive

With TSPAN9 #1, what does the deposit list?
G2 robust z-score: -0.207; Outcome: inactive

With TSPAN9 #2, what does the deposit list?
G2 robust z-score: -0.203; Outcome: inactive

For TSPAN9 #3, how do the results read?
G2 robust z-score: 0.98; Outcome: inactive
